PubChem BioAssay AID1259308 – NCATS | 2017
The deposit covers about 59,000 reagents; shown is a part drawn at random. Of all reagents, about 1,510 (2.6%) got an active call. 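Calls use total luciferase alone and ignore viability, so some active siRNAs may act by altering cell number.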 A number with no mark means an inactive call. Not all columns of the deposit are shown. No sequences are given here.

- Aim: 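Knock-downs that increase output of a recombinant reporter protein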 (primary screen)
- System: human HEK293 embryonic kidney cells stably expressing firefly luciferase (HEK-CMV-Luc2-Hygro)
- Knock-down reagent: single siRNA against human genes, 0.8 pmol siRNA per well
- Time to read-out: 72 h
- Measurement: 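Reporter luminescence and viable-cell signal on separate replicate plates, given as percent of non-targeting control and median/MAD z-scores, plus per-cell luciferase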
- Reading the numbers: total luciferase, z-score and total luciferase, % of control: higher = more reporter protein produced
- Hit rule: 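An siRNA counts as active if its total luciferase robust z-score exceeds 3; genes with two or more such siRNAs out of three were retested with fresh siRNAs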
- Calls: active = raised luciferase; inactive = no rise

PRAMEF12 [SID160766618]: total luciferase, z-score = 0.0891; total luciferase, % of control = 83.7
PRAMEF12 [SID160766619]: total luciferase, z-score = 0.0394; total luciferase, % of control = 82.7
PRAMEF12 [SID160766620]: total luciferase, z-score = 0.645; total luciferase, % of control = 94.7
LSM3 [SID160738630]: total luciferase, z-score = 1.14; total luciferase, % of control = 105
LSM3 [SID160738631]: total luciferase, z-score = -1; total luciferase, % of control = 61.9
LSM3 [SID160738632]: total luciferase, z-score = -0.499; total luciferase, % of control = 72
DENND10P1 [SID160724471]: total luciferase, z-score = -0.779; total luciferase, % of control = 66.4
DENND10P1 [SID160744529]: total luciferase, z-score = -0.0825; total luciferase, % of control = 80.2
DENND10P1 [SID160744530]: total luciferase, z-score = 0.659; total luciferase, % of control = 95
SLC36A4 [SID160755778]: total luciferase, z-score = 0.529; total luciferase, % of control = 92.4
SLC36A4 [SID160755780]: total luciferase, z-score = 2.61; total luciferase, % of control = 134
SLC36A4 [SID160755781]: total luciferase, z-score = 1.48; total luciferase, % of control = 111
TTC39A [SID160734735]: total luciferase, z-score = -0.736; total luciferase, % of control = 67.2
TTC39A [SID160734746]: total luciferase, z-score = 0.0901; total luciferase, % of control = 83.7
TTC39A [SID160734755]: total luciferase, z-score = 0.438; total luciferase, % of control = 90.6

The list goes on; the last 2 above are carried over.
TTC39A [SID160734746]: total luciferase, z-score = 0.0901; total luciferase, % of control = 83.7
TTC39A [SID160734755]: total luciferase, z-score = 0.438; total luciferase, % of control = 90.6
SLC26A10P [SID160731745]: total luciferase, z-score = 1.96; total luciferase, % of control = 121
SLC26A10P [SID160748215]: total luciferase, z-score = 2.31; total luciferase, % of control = 128
SLC26A10P [SID160748216]: total luciferase, z-score = 0.756; total luciferase, % of control = 96.9
HERC2P3 [SID160727973]: total luciferase, z-score = -0.762; total luciferase, % of control = 66.7
HERC2P3 [SID160727974]: total luciferase, z-score = -0.891; total luciferase, % of control = 64.2
HERC2P3 [SID160727975]: total luciferase, z-score = -0.0444; total luciferase, % of control = 81
LIN7B [SID160747507]: total luciferase, z-score = -0.288; total luciferase, % of control = 76.2
LIN7B [SID160747508]: total luciferase, z-score = 1.37; total luciferase, % of control = 109
LIN7B [SID160747509]: total luciferase, z-score = -0.341; total luciferase, % of control = 75.1
IDE [SID160775529]: total luciferase, z-score = -1.36; total luciferase, % of control = 54.9
IDE [SID160775530]: total luciferase, z-score = 0.157; total luciferase, % of control = 85
IDE [SID160775531]: total luciferase, z-score = -1.41; total luciferase, % of control = 53.8
AAK1 [SID160732009]: total luciferase, z-score = -0.326; total luciferase, % of control = 75.4
AAK1 [SID160732017]: total luciferase, z-score = -0.234; total luciferase, % of control = 77.2
AAK1 [SID160732025]: total luciferase, z-score = -0.471; total luciferase, % of control = 72.5
FAP [SID160763898]: total luciferase, z-score = -1.19; total luciferase, % of control = 58.1
FAP [SID160763908]: total luciferase, z-score = 0.83; total luciferase, % of control = 98.4
FAP [SID160763918]: total luciferase, z-score = 0.38; total luciferase, % of control = 89.5
